Laboratory results from paper PMC7617965, “Interaction with AK2A links AIFM1 to cellular energy metabolism” (Molecular cell, 2025).

Assays:
myc-MIC27 = biological target: T1, myc-MIC27 (UniProt Q6UXV4); assay: co-IP; native lysis of HEK293 cells (100 mM sodium phosphate pH 8.0, 100 mM NaCl, 1% Triton X-100); IP of AIFM1-HA, of endogenous AIFM1 or of myc-tagged bait on an agarose matrix at 4°C; immunoblot
T1 sequence: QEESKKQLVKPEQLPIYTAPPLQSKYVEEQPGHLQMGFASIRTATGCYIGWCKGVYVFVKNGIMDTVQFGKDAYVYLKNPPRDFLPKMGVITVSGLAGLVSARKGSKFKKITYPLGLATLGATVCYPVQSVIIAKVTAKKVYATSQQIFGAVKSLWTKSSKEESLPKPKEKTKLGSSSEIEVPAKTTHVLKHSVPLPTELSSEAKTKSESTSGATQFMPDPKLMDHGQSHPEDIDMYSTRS

[1] = biological target: endogenous AIFM1 (human (endogenous in HEK293)) (UniProt O95831); assay: SEC; native lysates of WT and AIFM1 KO HEK293 cells on Superdex 200; fractions of the AIFM1 complex region analysed by label-free proteomics
AIFM1-HA (human) = AIFM1-HA (human) (UniProt O95831); assay: co-IP; native lysis of HEK293 cells (100 mM sodium phosphate pH 8.0, 100 mM NaCl, 1% Triton X-100); IP of AIFM1-HA, of endogenous AIFM1 or of myc-tagged bait on an agarose matrix at 4°C; immunoblot
[2] = biological target: endogenous AIFM1 (human (endogenous in HEK293)) (UniProt O95831); assay: as above
[3] = biological target: endogenous AIFM1 (human (endogenous in HEK293)) (UniProt O95831); assay: SEC; native lysates of HEK293 cells (WT, AIFM1 KO, AIFM1 KO with AIFM1-HA, AK2 KO with AK2A or AK2B; cycloheximide 4 h in one panel) on HiLoad 16/600 Superdex 200; fractions analysed by immunoblot, in part after a thiol shift with mmPEG24
[4] = biological target: endogenous AIFM1 (human (endogenous in HEK293)) (UniProt O95831); assay: SEC; native lysates of WT HEK293 cells and of cells overexpressing MIA40 (MIA40 OE); pooled complex and monomer fractions, immunoblot

B2: MIA40 overexpressed in HEK293 cells (protein, UniProt Q8N4Q1 1-142)
chain: MSYCRQEGKDRIIFVTKEDHETPSSAELVADDPNDPYEEHGLILPNGNINWNCPCLGGMASGPCGEQFKSAFSCFHYSTEEIKGSDCVDQFRAMQECMQKYPDLYPQEDEDEEEEREKKPAEQAEETAPIEATATKEEEGSS
binding [4]: binds

B3: CPOX, endogenous (enzyme, UniProt P36551 111-454)
chain: TSLGRPEEEEDELAHRCSSFMAPPVTDLGELRRRPGDMKTKMELLILETQAQVCQALAQVDGGANFSVDRWERKEGGGGISCVLQDGCVFEKAGVSISVVHGNLSEEAAKQMRSRGKVLKTKDGKLPFCAMGVSSVIHPKNPHAPTIHFNYRYFEVEEADGNKQWWFGGGCDLTPTYLNQEDAVHFHRTLKEACDQHGPDLYPKFKKWCDDYFFIAHRGERRGIGGIFFDDLDSPSKEEVFRFVQSCARAVVPSYIPLVKKHCDDSFTPQEKLWQQLRRGRYVEFNLLYDRGTKFGLFTPGSRIESILMSLPLTARWEYMHSPSENSKEAEILEVLRHPRDWVR
binding (AIFM1-HA (human)): no binding

Second part, the molecule after the results:

binding (myc-MIC27): binds
Molecule: endogenous AIFM1 (from UniProt O95831)

binding [1]: binds | binding (AIFM1-HA (human)): binds | binding [2]: binds | binding [3]: binds
B1: MIA40, endogenous (protein, UniProt Q8N4Q1 1-142)
chain: B2 chain

No constants are given. Whether binding was seen depends on the method and setting. Binding can be weak; no strength is given. For some of these results: Binding seen in cells or lysates may run through a third protein. For some of these results: Where a sequence is shown, tags or fusion partners need not be part of it. Each block holds one molecule with its values, some of them ahead of it.
